The assay has as its system Salmonella enterica serovar Typhimurium SL1344. Nature of the assay: bacterial growth OD600 after 18 h with compound and polymyxin B; higher = more bacterial growth (less inhibition). The note with it: 50 µM, Mueller-Hinton broth.

The list shows a part of the results. Values are raw readings; no control value is given beside them.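 In the initial screen, polymyxin B was used at a concentration that permeabilizes Salmonella's outer membrane but not its inner membrane. Maximum growth was set by DMSO wells with or without polymyxin B. Since plates varied, data were ranked per plate, and compounds giving the lowest OD600 advanced as hits.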

For the molecule `Cc1ccc(Oc2ncccc2CNC2CCCC2)cn1`, the “bacterial growth OD600” value (polymyxin B 1 µg/mL) was 0.91.
Regarding `CC(C)Oc1ccc(CCNCc2c(C(=O)N3CCCC3)nc3sccn23)cc1`, the “bacterial growth OD600” value (polymyxin B 0.75 µg/mL) is 0.726.
The same measure, in the same setting: the figure for `CCC(=O)N[C@@H]1c2ccccc2C2(CCN(C(=O)c3ccc(C)s3)CC2)[C@H]1OCc1cccnc1` is 0.774; for `CCC1CN(C(=O)c2cccc(Cn3cccn3)c2)Cc2ccc(Cl)cc2O1` (stereo unspecified) it is 0.01.
Take `CN(Cc1nccs1)c1ccc(-c2nc(-c3ccccc3F)no2)cn1`: the “bacterial growth OD600” value (polymyxin B 1 µg/mL) was determined as 0.634.
In the case of `Cc1nc(N2CCCC2C(=O)NCCC2COc3ccccc3O2)nc2cc(S(C)(=O)=O)ccc12` (stereo unspecified), where the note is “polymyxin B 0.75 µg/mL”, the “bacterial growth OD600” value stood at 0.848.
On to `CCCn1c(C)c(CC(=O)NCc2ncn[nH]2)c2c1CC(C)(C)CC2=O`, for which the “bacterial growth OD600” value (polymyxin B 0.75 µg/mL) was determined as 0.962.
Same read-out and setting: as for `Cc1ccccc1-c1noc(-c2ccc(NCCCO)nc2)n1`, the figure is 0.741; as for `c1ccc(-c2nc(CNCc3cccnc3N3CCOCC3)co2)cc1`, 0.784; as for `COc1ccc(CN2C(=O)O[C@@H]3CN(c4ncccn4)C[C@@H]32)cc1OC`, 0.983.
As for `COc1ccc(-c2nc(CN3CCCCC3CO)c(C)o2)c(C)c1C` (stereo unspecified), under “polymyxin B 0.75 µg/mL”, the “bacterial growth OD600” value came out at 0.739.
Same read-out and setting: as for `O=C1CCC(CCC(=O)N2CCCC(C(=O)c3cccnc3)C2)(Cc2cccc3ccccc23)N1` (stereo unspecified), the figure is 0.816; as for `CC1CCN(Cc2nnnn2CC(=O)NCC2COc3ccccc3O2)CC1` (stereo unspecified), 0.541; as for `COCCCN1C(=O)CC(CC(=O)N(C)Cc2ccc3nccnc3c2)(c2ccccc2Cl)C1=O` (stereo unspecified), 0.834.
`CCN(CC1CCN(C2CCN(C)CC2)CC1)C(=O)c1ccc(-c2ccccc2)cc1`: the “bacterial growth OD600” value (polymyxin B 1 µg/mL) was 1.01.
On the same count and under the same terms, as for `COc1cccc(CN2CCN(Cc3nc(-c4ccccc4)cs3)CC2CCO)c1` (stereo unspecified), the figure is 1.1; as for `COc1cccc(OCc2cc(C(=O)N3CCCCC3c3cccnc3)n[nH]2)c1` (stereo unspecified), 0.904.
For the molecule `COCCn1cc(C(=O)NCC2(c3ccccc3)CCCC2)c(=O)c(C(=O)N(C)C(C)C)c1`, the “bacterial growth OD600” value (polymyxin B 0.75 µg/mL) is 0.93.
Consider `O=C1CCC(C(=O)N2CCC(CCc3ccccc3)CC2)CN1Cc1ccccn1` (stereo unspecified), for which, where the note is “polymyxin B 1 µg/mL”, the “bacterial growth OD600” value was 0.932.
The same measure, in the same setting: as for `COCc1noc(-c2ccc(NCCc3cscn3)nc2)n1`, the figure is 0.933.
The same measure, in the same setting: the figure for `COc1ccc(C(=O)NC2CC2)c(OC2CCN(Cc3nc(C(C)C)cs3)CC2)c1` is 0.756.

Source of the values: the supplement of paper PMC12889115.
